This is an account of results in PMC4933242, “Low or No Inhibitory Potency of the Canonical Galectin Carbohydrate-binding Site by Pectins and Galactomannans” (The Journal of Biological Chemistry, 2016).

Sequences of proteins named here, by UniProt entry; tags and fusion partners are left off.
UniProt P09382: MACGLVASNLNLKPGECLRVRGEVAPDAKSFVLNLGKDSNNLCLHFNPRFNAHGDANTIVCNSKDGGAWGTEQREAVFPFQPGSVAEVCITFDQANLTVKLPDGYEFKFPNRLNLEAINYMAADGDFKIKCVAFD
UniProt P17931: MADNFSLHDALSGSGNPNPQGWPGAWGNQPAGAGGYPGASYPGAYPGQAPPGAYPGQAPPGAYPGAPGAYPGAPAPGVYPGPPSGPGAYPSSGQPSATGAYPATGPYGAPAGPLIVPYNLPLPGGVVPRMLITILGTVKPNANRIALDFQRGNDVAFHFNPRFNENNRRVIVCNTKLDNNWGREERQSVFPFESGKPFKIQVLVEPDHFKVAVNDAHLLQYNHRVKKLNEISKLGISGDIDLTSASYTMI

These are yes or no findings as the source states them, for the method shown. Some entries that bind do so weakly or less than the wild type.

The target of assay [1] is galectin-1 wild type (UniProt P09382). The assay is described as follows: turbidimetry (precipitation); absorption at 350 nm of galectin-ASF precipitates; galectin-1- or galectin-3-induced aggregation of ASF with increasing concentrations of Davanat; both purified.
Assay [2] has as its target galectin-3 (UniProt P17931). The assay is described as above.

B1: asialofetuin (protein, UniProt P12763 19-359)
chain: IPLDPVAGYKEPACDDPDTEQAALAAVDYINKHLPRGYKHTLNQIDSVKVWPRRPTGEVYDIEIDTLETTCHVLDPTPLANCSVRQQTQHAVEGDCDIHVLKQDGQFSVLFTKCDSSPDSAEDVRKLCPDCPLLAPLNDSRVVHAVEVALATFNAESNGSYLQLVEISRAQFVPLPVSVSVEFAVAATDCIAKEVVDPTKCNLLAEKQYGFCKGSVIQKALGGEDVRVTCTLFQTQPVIPQPQPDGAEAEAPSAVPDAAGPTPSAAGPPVASVVVGPSVVAVPLPLHRAHYDLRHTFSGVASVESSSGEAFHVGKTPIVGQPSIPGGPVRLCPGRIRYFKI
Regarding B1, the binding result in assay [1] and in assay [2] was “binds” each time.
